Values quoted from earlier work as cited in patent US20200309767A1, “HIGH-THROUGHPUT IMAGING-BASED METHODS FOR PREDICTING CELL-TYPE-SPECIFIC TOXICITY OF XENOBIOTICS WITH DIVERSE CHEMICAL STRUCTURES” (priority 2015, published 2020).

Key:
[1] = test system: human proximal tubular cells (PTCs); settings: known toxicity flag 1/0; cited from earlier work
[2] = test system: human kidney; settings: in vivo; cited from earlier work

| Structure (SMILES) | PTC-toxic [1] | Nephrotoxic [2] |
| --- | --- | --- |
| O=C(O)c1cn(C2CC2)c2cc(N3CCNCC3)c(F)cc2c1=O [Ciprofloxacin] | 0 |  |
| NS(=O)(=O)c1cc(C(=O)O)c(NCc2ccco2)cc1Cl [Furosemide] |  | 1 |
